Out of some 340,000 compounds screened, about 6,200 (1.8%) were called active. The inconclusive results got no clear call from the source; some entries with a clear call stand among them for comparison. Calls come from the whole dose curve; as a rule, active = well fitted activation curve with a large enough effect; inconclusive = small, poorly fitted or top-dose-only effect; inactive = no such curve, though single readings can be large or run the other way. A potency beside an inconclusive call is a rough fit, not a confirmed value.
Assay: A quantitative high throughput screen for small molecules that induce DNA re-replication in SW480 colon adenocarcinoma cells. For re-replication activation: % of control where 0% means no effect. Note: nearly all actives have a fitted effect of over 55% in size.
Details: Hoechst DNA content imaging, 48 h; re-replication activation: at 46.1 µM (top of the series) unless noted
In short: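 250 cells/well; 23 nL cpd via pin tool; 48 hr, 37 C, 5% CO2; Hoechst 40 min; imager read of total nuclear intensity, ex 405/em 500-530 nm.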
Potency is the fitted concentration of half-maximal effect.

| SMILES | Potency | re-replication activation |
| --- | --- | --- |
| COc1ccc(-c2csc(NC(C)c3nc4cc(Cl)c(N5CCCCC5)cc4n3CCCO)n2)cc1 (centres undefined) | active: 0.146 µM |  |
| Cc1ccc2nc(Nc3nc(C)cc(-c4ccccc4)n3)[nH]c(=O)c2c1 |  | inactive: -19.6% |
| OC(CNCc1ccccc1C(F)(F)F)C(F)(F)F (centres undefined) | inconclusive: 16.4 µM [activator, partial curve, poor fit] |  |
| CCc1ccc(OCC(=O)OC2CCS(=O)(=O)C2)cc1 (centres undefined) |  | inactive: -4.32% |
| CC(=O)N1CCN(C(=O)c2ccc(-n3c(C)ccc3C)cc2)CC1 | inconclusive: 29.1 µM [activator, single point] |  |
| CCOC(=O)c1cc(C(=O)NNC(=O)c2cccc([N+](=O)[O-])c2)c(C)nc1C | inconclusive: 29.1 µM [activator, single point] |  |
| CSc1ccccc1C(=O)NCc1ccc(F)cc1 | inconclusive: 29.1 µM [activator, single point] |  |
| COC(=O)c1ccc(Cn2cc(C(F)(F)F)ccc2=O)cc1 |  | inactive: -128% |
| c1ccc2c(Nc3nc(N4CCOCC4)c4ccccc4n3)cccc2c1 | inconclusive: 16.4 µM [activator, single point] |  |
| Nc1nccc(-c2ccc(-n3cnc4ccccc43)cc2)n1 |  | inactive: -9.22% |
| Cc1cc(C)n(-c2nc(SCCN(C)C)c3c4c(sc3n2)CCCC4)n1 | inconclusive: 20.6 µM [activator, single point] |  |
| COc1ccc2nc(NC(=O)C3CCCN(S(=O)(=O)c4cccc5nsnc45)C3)sc2c1 (centres undefined) | inconclusive: 7.31 µM [activator, partial curve, poor fit] |  |
| CC1=NN(c2ccccc2)C(=O)C1(C)[N+](=O)[O-] (centres undefined) | inconclusive: 23.1 µM [activator, partial curve, poor fit] |  |
| COc1ccc(CCC(=O)NCc2cccc(C(F)(F)F)c2)cc1 |  | inactive: -15.7% |
| CN1CCN(S(=O)(=O)c2cccc(C(=O)Nc3ccccc3N3CCCCC3)c2)CC1 |  | inactive: -5.06% |
| COc1nn(-c2ccccc2)c(=O)c(Cl)c1Cl | active: 2.91 µM |  |
| COC(=O)[C@@H]1CC[C@H](C)[C@@H](c2ccc(C)cc2)N1C(=O)c1ccc(/C=N/O[C@@H](C)c2cn([C@H](CO)Cc3ccccc3)nn2)cc1 | inconclusive: 29.1 µM [activator, single point] |  |
| COCCNC(=O)C1(C)Oc2ccccc2NC1=O (centres undefined) | inconclusive: 1.03 µM [activator, single point] |  |
| C=CCc1ccc(OCC(O)CN2CCN(Cc3ccc(Cl)cc3)CC2)c(OC)c1 (centres undefined) | inconclusive: 18.4 µM [activator, single point] |  |
| CS(=O)(=O)c1ccc(-c2cccc(NC(=O)COc3ccccc3)c2)nn1 | inconclusive: 2.51 µM [activator, full curve, poor fit] |  |
| Cc1cc(=O)[nH]c(SCC(=O)c2ccc(O)c(O)c2)n1 |  | inactive: -19.6% [at 1.84 µM] |
| Cc1ccc(N2C(=O)N(CC(=O)c3cc(C)ccc3C)C(=O)C2C)cc1 (centres undefined) |  | inactive: 15.3% |
| Cc1ccc(-c2onc3ccc(Cl)cc23)cc1 | inconclusive: 14.6 µM [activator, partial curve, poor fit] |  |

| SMILES | Potency | re-replication activation |
| --- | --- | --- |
| Cn1c(=O)c2c(nc(NCCNC(=O)c3ccco3)n2Cc2ccc(F)cc2)n(C)c1=O |  | inactive: -6.13% |
| O=C(NNS(=O)(=O)c1ccccc1[N+](=O)[O-])c1cccc(Br)c1 |  | inactive: -9.88% |
| Cc1ccc(C(=O)Nc2ccccc2N2CCCC2)s1 | inconclusive: 18.4 µM [activator, single point] |  |
| CCOC(=O)N1CCN(C(=O)/C(=C\c2cccs2)NC(=O)c2cccs2)CC1 |  | inactive: -5.98% |
| CCN(CC(=O)NC1CCCC1)S(=O)(=O)c1ccc(F)cc1 | inconclusive: 32.6 µM [activator, partial curve, poor fit] |  |
| O=C(NNC(=S)NC(=O)c1cccc([N+](=O)[O-])c1)c1ccc(Br)cc1 | inconclusive: 18.4 µM [activator, single point] |  |
| Cc1ccc(Nc2c([N+](=O)[O-])c(=O)n(C)c3ccccc23)cc1C | inconclusive: 31.6 µM [activator, single point] |  |
| COc1cccc(-c2nc(-c3ccccc3)c(-c3ccccc3)[nH]2)c1OCC(=O)O |  | inactive: -0.77% |
| O=C(COC(=O)c1ccccc1OCc1ccccc1Cl)NC1CC1 |  | inactive: -1.77% |
| COc1cc([N+](=O)[O-])ccc1NC(=S)N1CCN(c2ccccn2)CC1 | inconclusive: 29.1 µM [activator, partial curve, poor fit] |  |
| O=S(=O)(NC(=NCCc1ccc(Cl)cc1)c1ccccc1Cl)c1cccs1 | inconclusive: 2.91 µM [activator, single point] |  |
| O=C(NCCNc1ccc([N+](=O)[O-])cc1C(F)(F)F)c1cccc(F)c1 | inconclusive: 6.51 µM [activator, single point] |  |
| C=CCn1c(C)cc(C(=O)CN2NS(=O)(=O)c3ccccc3C2=O)c1C | inconclusive: 3.66 µM [activator, partial curve, poor fit] |  |
| COc1ccc(S(=O)(=O)Nc2cccnc2)cc1OC | inconclusive: 29.1 µM [activator, single point] |  |
| Cc1ccc(-c2csc(N3CCN(c4cc5c(cc4Cl)nc(C)n5CCN4CCCCC4)CC3)n2)cc1 | inconclusive: 0.116 µM [activator, full curve, poor fit] |  |
| Cc1ccc(-c2c[n+](CC(=O)Nc3ccccc3C)c3n2CCC3)cc1 |  | inactive: 2.95% |
| COc1cc(C#Cc2c(-c3cncn3C)n(C)c3ccc(-c4ccc(CN5CCOCC5)cc4)cc23)cc(OC)c1 | inconclusive: 18.4 µM [activator, single point] |  |
| CSc1ccccc1NC(=O)CSc1n[nH]c(C)c1[N+](=O)[O-] | inconclusive: 0.291 µM [activator, partial curve, poor fit] |  |
| CCn1c(=O)c(C(=O)Nc2ccccc2)c(O)c2ccccc21 |  | inactive: -0.546% |
| COc1ccccc1C(=O)N1c2ccccc2Sc2ccccc21 | inconclusive: 32.6 µM [activator, partial curve, poor fit] |  |
| O=C(Nc1ccccc1C(=O)N/N=C/c1ccco1)c1ccc(F)cc1 | inconclusive: 1.84 µM [activator, single point] |  |
| CCCCOC(=O)C1=C(C)NC(=O)NC1c1ccc([N+](=O)[O-])s1 (centres undefined) | inconclusive: 6.51 µM [activator, single point] |  |
| COc1ccccc1NC(=O)CN1CCN(Cc2ccccc2)CC1 |  | inactive: -0.73% |

In the list so far, these contain a CF3 group:

| SMILES | Potency | re-replication activation |
| --- | --- | --- |
| OC(CNCc1ccccc1C(F)(F)F)C(F)(F)F (centres undefined) | inconclusive: 16.4 µM [activator, partial curve, poor fit] |  |
| COC(=O)c1ccc(Cn2cc(C(F)(F)F)ccc2=O)cc1 |  | inactive: -128% |
| COc1ccc(CCC(=O)NCc2cccc(C(F)(F)F)c2)cc1 |  | inactive: -15.7% |
| O=C(NCCNc1ccc([N+](=O)[O-])cc1C(F)(F)F)c1cccc(F)c1 | inconclusive: 6.51 µM [activator, single point] |  |

No new results follow: 2 of the compounds above.

| SMILES | Potency | re-replication activation |
| --- | --- | --- |
| O=S(=O)(NC(=NCCc1ccc(Cl)cc1)c1ccccc1Cl)c1cccs1 | inconclusive: 2.91 µM [activator, single point] |  |
| O=C(NCCNc1ccc([N+](=O)[O-])cc1C(F)(F)F)c1cccc(F)c1 | inconclusive: 6.51 µM [activator, single point] |  |

The list continues.

| SMILES | Potency | re-replication activation |
| --- | --- | --- |
| O=C1NC(c2ccc(O)cc2)Nc2ccccc21 (centres undefined) | inconclusive: 20.6 µM [activator, single point] |  |
| O=C1Nc2cc(C(=O)NCCCN3CCOCC3)ccc2S/C1=C/c1ccccc1F | inconclusive: 16.4 µM [activator, single point] |  |
| COc1cc(C(=O)NCCOc2cccc3cccnc23)cc(OC)c1OC |  | inactive: -2.02% |
| Cc1ccc(NC(=O)c2ccc(S(=O)(=O)NCc3ccco3)cc2)nc1 | active: 20.6 µM |  |
| CC(C)(C)C(=O)NCC12C=CC(O1)C1C(=O)N(c3ccccc3)C(=O)C12 (centres undefined) | inconclusive: 29.1 µM [activator, single point] |  |
| Cc1ccc(OCCNS(=O)(=O)c2ccc(Cl)cc2)cc1 | inconclusive: 29.1 µM [activator, single point] |  |
| COc1ccc(C(=O)Nc2ccc3ccccc3n2)cc1OC |  | inactive: -10.8% |
| Fc1cccc(F)c1-n1c(CN2CCCCC2)csc1=S | active: 14.6 µM |  |
| O=C1CC(c2cc([N+](=O)[O-])ccc2Cl)c2c(ccc3ccccc23)N1 (centres undefined) | inconclusive: 20.6 µM [activator, single point] |  |
| COC(=O)c1cc(NC(=O)C(C)c2ccc(CC(C)C)cc2)ccc1O (centres undefined) | inconclusive: 29.1 µM [activator, single point] |  |
| NNC(=O)CSc1c(-c2ccccc2)c2cc(Cl)ccc2[nH]c1=O |  | inactive: -8.02% |
| CC(=O)Nc1sc(NC(=O)c2ccc(Cl)cc2)nc1-c1cccs1 |  | inactive: -3.85% |
| O=C(NCC(c1cccs1)N1CCOCC1)c1cccc(S(=O)(=O)Nc2ccc(F)cc2)c1 (centres undefined) |  | inactive: -10.4% |
| CCn1c(=N)n(CC(=O)c2ccc(Cl)c(Cl)c2)c2ccccc21 | inconclusive: 25.9 µM [activator, single point] |  |
| Cc1cccc(/C=N/NC(=O)c2cccc(Cl)c2)n1 | inconclusive: 29.1 µM [activator, single point] |  |
| CCN(CC)S(=O)(=O)c1ccc(OC(C)C)c(NC(=O)c2c3c(nc4ccccc24)CCN(Cc2ccccc2)C3)c1 | inconclusive: 3.66 µM [activator, partial curve, poor fit] |  |
| COCCCNC(=S)N(CCO)Cc1cc2cc3c(cc2[nH]c1=O)OCO3 |  | inactive: -9.22% |
| Cn1ccnc1SCC(=O)NC1CCCC1 | inconclusive: 4.61 µM [activator, full curve, poor fit] |  |
| CCc1ccc2nc(N(CCCN(C)C)C(=O)c3ccc(S(=O)(=O)N4CCc5ccccc5C4)cc3)sc2c1 | inconclusive: 20.6 µM [activator, single point] |  |
| COC(=O)C(=Cc1ccccc1[N+](=O)[O-])C(=O)OC | inconclusive: 5.17 µM [activator, full curve] |  |
| CCOC(=O)c1c(NC(C)=O)sc2c(OC)c(Br)ccc12 | inconclusive: 6.51 µM [activator, single point] |  |
| CCCCn1c(=O)[nH]c(=O)c2c(C(=O)OCC)cc(-c3cccs3)nc21 | inconclusive: 29.1 µM [activator, single point] |  |
| Oc1ccc(Cl)cc1CNc1ccccn1 | inconclusive: 25.9 µM [activator, single point] |  |
